Values of other authors, collected in publication PMC9997069 (Molecular Pharmaceutics, 2023).
Read-outs that look alike come from different tables or passages of the source.

System: BSA
Conditions: cited from earlier work

| SMILES | ΔG^0 (308 K) | ΔH^0 | ΔS^0 | ΔG^0 (309 K) | ΔG^0 (307 K) |
| --- | --- | --- | --- | --- | --- |
| Cc1ccc(F)c(NC(=O)Nc2ccc(-c3cccc4[nH]nc(N)c34)cc2)c1 [Linifanib] | –21.49 kJ mol^–1 | –55.91 kJ mol^–1 | –111.74 J K^–1 mol^–1 |  |  |
| C[C@@H](Oc1cc(-c2cnn(C3CCNCC3)c2)cnc1N)c1c(Cl)ccc(F)c1Cl [Crizotinib] |  | –3.23 kJ mol^–1 | 76.37 J K^–1 mol^–1 | –26.83 kJ mol^–1 |  |
| C#Cc1cccc(Nc2ncnc3cc(OCCOC)c(OCCOC)cc23)c1 [Erlotinib] |  | –260.80 kJ mol^–1 | –793.31 J K^–1 mol^–1 |  | –17.26 kJ mol^–1 |
